The campaign covered roughly 300,000 compounds. About 5,400 (1.8%) were called active. Inconclusive means that the source gave no clear call. Such entries were picked first, then a sample of the others. Calls follow the shape of the full dose curve; tested in HEK293 cells. Where the call is inconclusive, the potency comes from a doubtful curve fit.
Test: qHTS for inhibitors of binding or entry into cells for Marburg Virus
Conditions: Marburg virus pseudotyped entry inhibition, cell reporter; activity change, negative = inhibition: at 37.8 µM (top of the series) unless noted
% is scaled to controls: 0 for no effect and ±100 for the full control effect; potency is read from the fitted curve at half-maximal effect.

SMILES | Potency | activity change, negative = inhibition
N=C1C(c2ccccc2)=C(O)CN1c1ccccc1 | inconclusive: 0.501 µM [activator, full curve, poor fit] | –
Cc1nc(CS(=O)c2ccc(Cl)cc2)cc(N2CCOCC2)n1 (centres undefined) | inconclusive: 2.51 µM [inhibitor, full curve, poor fit] | –
O=C(N/N=C/C1CCCCC1)c1ccccn1 | – | inactive: 2.87% [at 46.1 µM]
CN(C)S(=O)(=O)c1ccc(NCC2COc3ccccc3O2)c([N+](=O)[O-])c1 (centres undefined) | inconclusive: 0.562 µM [activator, full curve, poor fit] | –
COc1ccc(CN(C)CC(O)COC(c2ccc(OC)cc2)c2ccc(OC)cc2)cc1 (centres undefined) | inconclusive: 12.6 µM [inhibitor, single point] | –
O=C(CN1C(=O)/C(=C2\SC(=S)N(C3CCS(=O)(=O)C3)C2=O)c2ccccc21)Nc1ccc(F)cc1 (centres undefined) | – | inactive: 3.89% [at 46.1 µM]
CC(C)CN(C(=O)CSc1ncnc2ccccc12)C1CCS(=O)(=O)C1 (centres undefined) | inconclusive: 0.891 µM [inhibitor, full curve, poor fit] | –
CN(C)S(=O)(=O)c1cccc(NC(=O)COc2cccc(C#N)c2)c1 | inconclusive: 14.1 µM [activator, single point] | –
CN(Cc1ccccc1)C(=O)c1nc2ccccn2c1CN1CCCC1c1nccs1 (centres undefined) | – | inactive: -0.851% [at 46.1 µM]
Cc1cccc(NC(=O)CSc2nnc(CNC(=O)c3cccs3)o2)c1C | inconclusive: 0.891 µM [inhibitor, full curve, poor fit] | –
Brc1ccccc1-c1nnc(COc2ncnc3ccccc23)o1 | – | inactive: -4.76% [at 46.1 µM]
COc1ccc(Cl)cc1N(CC(=O)NC1CC1)S(=O)(=O)c1ccc(C)c([N+](=O)[O-])c1 | inconclusive: 15.8 µM [inhibitor, partial curve, poor fit] | –
O=C(CCc1ccccc1)Nc1ncc([N+](=O)[O-])s1 | inconclusive: 14.1 µM [inhibitor, single point] | –
NC(=O)C1CCN(Cc2cccc(OCc3ccccc3)c2)CC1 | – | inactive: -15.7%
CCOC(=O)C1=C(C)NC2=C(C(=O)CC(c3ccc(OC)c(OC)c3)C2)C1c1ccc(C)o1 (centres undefined) | inconclusive: 35.5 µM [inhibitor, single point] | –
CCN(CC(=O)Nc1cc(C)nn1-c1nc(C)cc(C)n1)Cc1ccccc1 | inconclusive: 2.82 µM [activator, partial curve] | –
CCCC(CCC(=O)Nc1nccs1)C(=O)O (centres undefined) | inconclusive: 6.31 µM [inhibitor, single point] | –
CCCCN(CCCC)S(=O)(=O)c1ccc(C(=O)Nc2nnc(CSC)o2)cc1 | inconclusive: 35.5 µM [inhibitor, single point] | –
COc1ccc(NC(=O)CSc2nc3ccccc3c(=O)n2-c2ccc3c(c2)OCO3)c(OC)c1 | inconclusive: 0.562 µM [activator, partial curve, poor fit] | –
CC(NC1CCCC1)C(=O)Nc1ccccc1-c1ccccc1 (centres undefined) | inconclusive: 29.1 µM [activator, single point] | –
CCN(CC)c1ccc(C=NNc2ccc([N+](=O)[O-])cn2)cc1 | inconclusive: 6.31 µM [activator, partial curve, poor fit] | –
COc1ccc(OCCNC(=O)c2cc(C3CC3)nc3c2cnn3C(C)C)cc1 | inconclusive: 20 µM [inhibitor, partial curve, poor fit] | –

2 of the compounds above, tab-delimited.
SMILES	Potency	activity change, negative = inhibition
CCCC(CCC(=O)Nc1nccs1)C(=O)O (centres undefined)	inconclusive: 6.31 µM [inhibitor, single point]	–
CCCCN(CCCC)S(=O)(=O)c1ccc(C(=O)Nc2nnc(CSC)o2)cc1	inconclusive: 35.5 µM [inhibitor, single point]	–

(list continues)

SMILES | Potency | activity change, negative = inhibition
O=C(OCC(=O)N(Cc1ccccc1)C1CCS(=O)(=O)C1)c1cc2c(s1)CCCC2 (centres undefined) | inconclusive: 2 µM [activator, partial curve, poor fit] | –
O=C(C[n+]1cc(-c2ccccc2)n2c1CCC2)Nc1nc(-c2ccccc2)cs1 | – | inactive: 19.7%
CCOc1cc(/C=C2\CCC/C(=C\c3cc(Cl)c(O)c(OCC)c3)C2=O)cc(Cl)c1O | active: 11.2 µM | –
CCOC(=O)C1CCN(C(=O)COC(=O)c2ccc(Br)o2)CC1 | – | inactive: 3.89% [at 46.1 µM]
O=C(Nc1ccccc1-c1nnc(SCc2ccc(Cl)cc2Cl)o1)c1ccccc1 | – | inactive: 5.35%
O=C(Nc1ccccc1)OCC1CCCN2CCCCC12 (centres undefined) | – | inactive: 18.1%
CCOC(=O)c1ccc(NCCOC)c([N+](=O)[O-])c1 | inconclusive: 7.94 µM [activator, partial curve, poor fit] | –
Cc1ccc(-n2nc3c(=O)n(CCCC(=O)NC4CCC(C)CC4)nc(C)c3c2C)cc1 (centres undefined) | – | inactive: 3.57% [at 46.1 µM]
CCOC(=O)C1CCCN(CC(=O)Nc2c(C(=O)OC)[nH]c3ccc(Cl)cc23)C1 (centres undefined) | inconclusive: 35.5 µM [inhibitor, partial curve, poor fit] | –
CN(Cc1ccccc1)CC1C2CCC(C2)C1O (centres undefined) | inconclusive: 35.5 µM [inhibitor, single point] | –
CNCC(O)CN1CCN(c2ccccc2OC)CC1 (centres undefined) | inconclusive: 18.3 µM [inhibitor, single point] | –
Cc1ccc(-c2cc(=O)[nH]c(NCc3ccccc3)n2)cc1 | inconclusive: 1.12 µM [inhibitor, full curve, poor fit] | –
C[C@H](N)c1nnc(SCc2c(Cl)cccc2Cl)o1 | inconclusive: 4.61 µM [activator, single point] | –
CCOC(=O)N1CCC(N2Cc3cccc(C(=O)Nc4ccc(N(CC)CC)cc4C)c3C2=O)CC1 | – | inactive: 19% [at 46.1 µM]
CC(C)c1nnc(NC(=O)c2c(O)c3cccc4c3n(c2=O)CCC4)s1 | – | inactive: -17.7%
CCn1c(-c2cccnc2Cl)nc2cc(Cl)c(Cl)cc21 | – | inactive: -23.2%
Cc1coc(NC(=O)CSc2nc(-c3ccncc3)cc(C(F)(F)F)c2C#N)n1 | inconclusive: 14.6 µM [inhibitor, partial curve, poor fit] | –
CC(C)c1nc2ccccn2c1NC1CCCCC1 | – | inactive: -41.9%
CS(=O)(=O)c1cccc(C(=O)Nc2cccc(S(=O)(=O)N3CCCC3)c2)c1 | – | inactive: -29.2% [at 46.1 µM]
Fc1ccccc1C1CCN(Cc2nc(CC3CC3)no2)C1 (centres undefined) | inconclusive: 0.562 µM [activator, full curve, poor fit] | –
Cc1nn(-c2ccccc2)c(N)c1N=Nc1cccc(S(=O)(=O)N2CCOCC2)c1 | inconclusive: 8.91 µM [inhibitor, partial curve, poor fit] | –
CCOC(=O)c1cc(C(=O)NCc2ccc(Cl)cc2Cl)nn1C | – | inactive: 29.4%
